This is an account of results in US20220332791A1 (ALIVEGEN, published 2022).

The chains behind the UniProt entries cited, without tags or fusion partners. Where a name states a change or a piece, a line headed by the entry shows the natural chain unless it says otherwise.
UniProt P27037: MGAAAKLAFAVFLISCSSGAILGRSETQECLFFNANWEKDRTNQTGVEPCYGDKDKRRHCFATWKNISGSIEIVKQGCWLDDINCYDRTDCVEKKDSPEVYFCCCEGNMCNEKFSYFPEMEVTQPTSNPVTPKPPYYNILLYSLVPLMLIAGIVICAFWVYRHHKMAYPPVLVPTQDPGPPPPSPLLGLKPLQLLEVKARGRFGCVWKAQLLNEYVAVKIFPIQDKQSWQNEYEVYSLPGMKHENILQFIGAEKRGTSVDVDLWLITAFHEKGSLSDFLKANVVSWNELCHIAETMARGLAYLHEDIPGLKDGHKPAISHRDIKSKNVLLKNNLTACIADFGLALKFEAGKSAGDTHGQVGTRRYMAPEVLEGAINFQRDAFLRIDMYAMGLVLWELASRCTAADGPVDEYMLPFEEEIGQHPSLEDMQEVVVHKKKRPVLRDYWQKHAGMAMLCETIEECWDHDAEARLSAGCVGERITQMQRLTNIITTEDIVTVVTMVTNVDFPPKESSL

Results are given in words; binding and its absence hold for the method and conditions named. Some binding calls cover weakened binding; strength is not graded here.

The target in test [1] is T1, BMP9 (UniProt Q9UK05 320-429).
T1 sequence (looked up): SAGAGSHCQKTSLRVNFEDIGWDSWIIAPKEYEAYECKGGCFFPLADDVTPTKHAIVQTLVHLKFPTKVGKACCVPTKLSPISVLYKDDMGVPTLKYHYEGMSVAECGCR
Kind of test: automated ELISA on BMP9-coated beads (KinExA instrument), 100 pM, 1 nM and 10 nM; reference of the comparison.

For test [2], the target named is T1, BMP9. In words: automated ELISA on KinExA: BMP9-coupled Sepharose beads, captured Fc fusion detected with Alexa Fluor 647 goat anti-human Fc. In general terms: In an ELISA, binding on a coated surface is turned into a signal by an enzyme label.

“wild-type ActRIIA ECD-Fc (from UniProt P27037 20-135) (Fc fusion)”: the binding entry with BMP9 [1] and with BMP9 [2] was “binds” throughout.
